Values quoted from earlier work as cited in PMC3849647, “Pharmacokinetics and biodistribution of the cyclin-dependent kinase inhibitor -CR8- in mice” (BMC Pharmacology & Toxicology, 2013).
Like-named read-outs stand apart in the source and are kept apart here.

Columns and labels:
tumor cell lines = details: cited from earlier work
[1] = brain vs plasma, reported, no reference given; cited from earlier work

In the case of CC[C@H](CO)Nc1nc(NCc2ccccc2)c2ncn(C(C)C)c2n1 [roscovitine], the IC50 (tumor cell lines; different cell lines, read-out: Optimal concentration for pharmacological effect in-vitro in different cell lines) is listed as 14.6 µM, the IC50 (tumor cell lines; read-out: Reported anti-tumor IC50) is listed as 15 to 17 µM and the “Brain exposure relative to plasma (passage of BBB)” value [1] is listed as 30%.
